We go through three molecules from article PMC7593971.

Like-named read-outs stand apart in the source and are kept apart here. No constants are given. Whether binding was seen depends on the method and setting. In cells and extracts the contact can be indirect. Binding calls can cover weak binding; strength is not graded here.

Common to all, as to experiment: co-IP; GFP trap slurry (Chromotek) incubated 2 h at 4°C with the supernatant of S. pneumoniae cells lysed in buffer B (0.1 M Tris-HCl pH 7.5, 100 mM NaCl, 1 mM EDTA, 1 mM DTT, 5% digitonin); washed three times with buffer C (150 mM NaCl, 0.05% digitonin); eluate immunoblotted with anti-Flag, anti-PBP1a or anti-PBP1b antibody
A general note: Immunoblotting shows a protein as a band on a membrane.

Experiment [1] addresses GFP-CozEb (CozEb fused to green fluorescent protein) (Streptococcus pneumoniae) (UniProt Q8DP46).
Experiment [2] has as its target GFP-CozEa (GFP-labeled CozEa) (Streptococcus pneumoniae) (UniProt Q8DQ98).
The target is the same in experiment [3]. This is another data set of the same source.
For experiment [4], the target named is GFP-CozEb (CozEb fused to green fluorescent protein) (Streptococcus pneumoniae) (UniProt Q8DP46). The source holds these as a separate data set.

As to “Flag-CozEa (CozEa fused to a Flag-tag) (from UniProt Q8DQ98)”, the binding result in experiment [1] is reported as “binds”.

Consider “PBP1b (penicillin-binding protein 1b) (from UniProt Q7CRA4 1-821)”, for which the binding entry in experiment [2] and in experiment [1] was “binds weakly” in each case.

B1: PBP1a (penicillin-binding protein 1a) (protein, UniProt Q8DR59 1-719)
chain: MNKPTILRLIKYLSISFLSLVIAAIVLGGGVFFYYVSKAPSLSESKLVATTSSKIYDNKNQLIADLGSERRVNAQANDIPTDLVKAIVSIEDHRFFDHRGIDTIRILGAFLRNLQSNSLQGGSALTQQLIKLTYFSTSTSDQTISRKAQEAWLAIQLEQKATKQEILTYYINKVYMSNGNYGMQTAAQNYYGKDLNNLSLPQLALLAGMPQAPNQYDPYSHPEAAQDRRNLVLSEMKNQGYISAEQYEKAVNTPITDGLQSLKSASNYPAYMDNYLKEVINQVEEETGYNLLTTGMDVYTNVDQEAQKHLWDIYNTDEYVAYPDDELQVASTIVDVSNGKVIAQLGARHQSSNVSFGINQAVETNRDWGSTMKPITDYAPALEYGVYESTATIVHDEPYNYPGTNTPVYNWDRGYFGNITLQYALQQSRNVPAVETLNKVGLNRAKTFLNGLGIDYPSIHYSNAISSNTTESDKKYGASSEKMAAAYAAFANGGTYYKPMYIHKVVFSDGSEKEFSNVGTRAMKETTAYMMTDMMKTVLSYGTGRNAYLAWLPQAGKTGTSNYTDEEIENHIKTSQFVAPDELFAGYTRKYSMAVWTGYSNRLTPLVGNGLTVAAKVYRSMMTYLSEGSNPEDWNIPEGLYRNGEFVFKNGARSTWSSPAPQQPPSTESSSSSSDSSTSQSSSTTPSTNNSTTTNPNNNTQQSNTTPDQQNQNPQPAQP
Regarding B1, the binding entry in experiment [3] and in experiment [4] was “binds” in each case.
